# ± gives the standard deviation of the averaged measurements. The list shows a part of the results.
# By UniProt entry, the sequences of proteins in these tests, tags left out. Where a name states a change or a piece, a line headed by the entry shows the natural chain unless it says otherwise.
# UniProt Q96SB3: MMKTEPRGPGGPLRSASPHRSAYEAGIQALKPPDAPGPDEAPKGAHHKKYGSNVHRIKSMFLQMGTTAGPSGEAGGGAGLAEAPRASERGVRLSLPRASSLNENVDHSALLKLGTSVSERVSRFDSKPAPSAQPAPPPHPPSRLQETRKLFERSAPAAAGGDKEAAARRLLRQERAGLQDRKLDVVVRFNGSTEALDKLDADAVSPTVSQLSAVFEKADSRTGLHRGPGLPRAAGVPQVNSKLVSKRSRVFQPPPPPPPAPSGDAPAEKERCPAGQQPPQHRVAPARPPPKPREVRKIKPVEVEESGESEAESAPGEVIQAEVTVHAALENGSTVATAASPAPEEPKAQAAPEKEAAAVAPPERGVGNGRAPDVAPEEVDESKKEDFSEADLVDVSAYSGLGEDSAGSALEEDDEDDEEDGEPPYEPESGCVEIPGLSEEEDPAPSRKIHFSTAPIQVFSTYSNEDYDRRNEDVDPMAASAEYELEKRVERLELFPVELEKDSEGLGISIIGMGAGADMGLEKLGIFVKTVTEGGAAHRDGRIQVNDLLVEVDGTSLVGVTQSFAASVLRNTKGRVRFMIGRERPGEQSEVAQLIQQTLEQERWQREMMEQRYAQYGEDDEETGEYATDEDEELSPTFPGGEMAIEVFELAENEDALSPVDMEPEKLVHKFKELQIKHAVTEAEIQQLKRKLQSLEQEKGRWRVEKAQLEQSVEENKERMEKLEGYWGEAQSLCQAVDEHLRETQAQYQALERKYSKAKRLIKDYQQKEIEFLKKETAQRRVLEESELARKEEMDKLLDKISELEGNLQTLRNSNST
# UniProt Q9BX67: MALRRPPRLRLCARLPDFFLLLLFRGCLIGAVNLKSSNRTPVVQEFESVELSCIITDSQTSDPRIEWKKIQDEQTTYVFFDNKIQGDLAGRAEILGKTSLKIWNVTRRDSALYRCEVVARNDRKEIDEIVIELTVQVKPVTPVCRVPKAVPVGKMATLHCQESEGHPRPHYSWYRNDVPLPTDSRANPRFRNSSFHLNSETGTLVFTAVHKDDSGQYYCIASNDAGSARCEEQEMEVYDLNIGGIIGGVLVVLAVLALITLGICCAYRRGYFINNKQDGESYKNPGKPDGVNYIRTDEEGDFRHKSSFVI
# UniProt Q9BRX2, whole entry: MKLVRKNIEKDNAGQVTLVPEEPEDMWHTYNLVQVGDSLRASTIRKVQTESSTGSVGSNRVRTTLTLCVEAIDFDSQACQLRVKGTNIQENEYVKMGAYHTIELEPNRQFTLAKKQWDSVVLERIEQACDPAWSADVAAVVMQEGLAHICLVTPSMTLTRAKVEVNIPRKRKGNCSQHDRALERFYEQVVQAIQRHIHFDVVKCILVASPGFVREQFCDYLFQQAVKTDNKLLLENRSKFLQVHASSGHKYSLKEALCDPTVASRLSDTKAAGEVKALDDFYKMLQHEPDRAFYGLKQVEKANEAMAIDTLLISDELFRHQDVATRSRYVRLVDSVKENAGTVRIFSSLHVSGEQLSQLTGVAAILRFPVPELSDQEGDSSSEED
# UniProt Q9BSF4: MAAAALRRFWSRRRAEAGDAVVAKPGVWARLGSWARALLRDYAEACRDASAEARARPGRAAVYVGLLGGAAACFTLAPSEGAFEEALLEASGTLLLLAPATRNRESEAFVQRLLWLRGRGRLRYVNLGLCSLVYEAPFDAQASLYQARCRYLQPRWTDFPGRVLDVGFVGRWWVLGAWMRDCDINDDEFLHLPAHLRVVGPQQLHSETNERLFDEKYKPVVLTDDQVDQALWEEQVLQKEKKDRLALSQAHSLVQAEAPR
# UniProt Q9BRT9, whole entry: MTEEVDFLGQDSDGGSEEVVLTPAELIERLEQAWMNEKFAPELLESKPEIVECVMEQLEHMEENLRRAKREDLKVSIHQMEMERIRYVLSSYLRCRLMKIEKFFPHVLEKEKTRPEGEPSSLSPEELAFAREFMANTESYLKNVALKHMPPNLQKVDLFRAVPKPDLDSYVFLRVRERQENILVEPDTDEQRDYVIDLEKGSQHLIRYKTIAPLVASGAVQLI
# Compound: Nc1nc2c(ncn2[C@@H]2O[C@H](COP(=O)(O)OP(=O)(O)OP(=O)(O)O)[C@@H](O)[C@H]2O)c(=O)[nH]1 [guanosine triphosphate]
# Test: NP40-soluble protein abundance relative to vehicle (solubility fold change) (ratio); higher = more soluble protein in presence of GTP
# Description: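 Solubility proteome profiling in Jurkat crude lysate. Lysate was treated with Mg-GTP (0.1-10 mM) for 10 min at room temperature and 3 min at 37 °C, then solubilised with 0.8% NP40 and benzonase, followed by ultracentrifugation. Proteins were quantified by TMT10 LC-MS/MS; the value is the NP40-soluble abundance relative to the NP40-processed vehicle, from 3 independent experiments.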
Target,NP40-soluble protein abundance (concentration: 0.1mM),NP40-soluble protein abundance (concentration: 0.5mM),NP40-soluble protein abundance (concentration: 1mM),NP40-soluble protein abundance (concentration: 2mM),NP40-soluble protein abundance (concentration: 4mM),NP40-soluble protein abundance (concentration: 6mM),NP40-soluble protein abundance (concentration: 8mM),NP40-soluble protein abundance (concentration: 10mM)
PPP1R9B (UniProt Q96SB3),1.03 ± 0.17,1.02 ± 0.15,1.11 ± 0.16,1.12 ± 0.15,1.18 ± 0.22,1.24 ± 0.21,1.39 ± 0.21,1.46 ± 0.19
UniProt Q9BX67,1.04 ± 0.013,0.954 ± 0.065,0.965 ± 0.026,0.913 ± 0.066,0.905 ± 0.046,0.88 ± 0.086,0.953 ± 0.035,0.897 ± 0.06
PELO (UniProt Q9BRX2),0.959 ± 0.059,1 ± 0.089,0.912 ± 0.048,0.918 ± 0.057,0.914 ± 0.057,0.973 ± 0.041,0.948 ± 0.078,0.968 ± 0.082
UniProt Q9BSF4,1.16 ± 0.16,1.09 ± 0.11,1.12 ± 0.085,1.11 ± 0.027,1.18 ± 0.091,1.17 ± 0.037,0.972 ± 0.071,0.97875 ± 0.0002
GINS4 (UniProt Q9BRT9),0.959 ± 0.017,0.926 ± 0.012,0.937 ± 0.02,0.93 ± 0.018,0.93 ± 0.02,0.891 ± 0.023,0.903 ± 0.061,0.874 ± 0.034
